Data reported in the supplement of paper PMC10849652.
Some of the results follow.

The chains behind the UniProt entries cited, without tags or fusion partners. Where a name states a change or a piece, a line headed by the entry shows the natural chain unless it says otherwise.
UniProt Q9NV56, whole entry, looked up: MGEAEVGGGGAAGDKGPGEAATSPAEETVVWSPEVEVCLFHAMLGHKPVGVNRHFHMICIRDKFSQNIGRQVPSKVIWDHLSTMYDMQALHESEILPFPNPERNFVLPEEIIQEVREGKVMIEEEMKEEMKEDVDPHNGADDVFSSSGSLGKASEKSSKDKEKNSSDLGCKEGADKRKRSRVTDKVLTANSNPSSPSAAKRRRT
UniProt Q8IY33: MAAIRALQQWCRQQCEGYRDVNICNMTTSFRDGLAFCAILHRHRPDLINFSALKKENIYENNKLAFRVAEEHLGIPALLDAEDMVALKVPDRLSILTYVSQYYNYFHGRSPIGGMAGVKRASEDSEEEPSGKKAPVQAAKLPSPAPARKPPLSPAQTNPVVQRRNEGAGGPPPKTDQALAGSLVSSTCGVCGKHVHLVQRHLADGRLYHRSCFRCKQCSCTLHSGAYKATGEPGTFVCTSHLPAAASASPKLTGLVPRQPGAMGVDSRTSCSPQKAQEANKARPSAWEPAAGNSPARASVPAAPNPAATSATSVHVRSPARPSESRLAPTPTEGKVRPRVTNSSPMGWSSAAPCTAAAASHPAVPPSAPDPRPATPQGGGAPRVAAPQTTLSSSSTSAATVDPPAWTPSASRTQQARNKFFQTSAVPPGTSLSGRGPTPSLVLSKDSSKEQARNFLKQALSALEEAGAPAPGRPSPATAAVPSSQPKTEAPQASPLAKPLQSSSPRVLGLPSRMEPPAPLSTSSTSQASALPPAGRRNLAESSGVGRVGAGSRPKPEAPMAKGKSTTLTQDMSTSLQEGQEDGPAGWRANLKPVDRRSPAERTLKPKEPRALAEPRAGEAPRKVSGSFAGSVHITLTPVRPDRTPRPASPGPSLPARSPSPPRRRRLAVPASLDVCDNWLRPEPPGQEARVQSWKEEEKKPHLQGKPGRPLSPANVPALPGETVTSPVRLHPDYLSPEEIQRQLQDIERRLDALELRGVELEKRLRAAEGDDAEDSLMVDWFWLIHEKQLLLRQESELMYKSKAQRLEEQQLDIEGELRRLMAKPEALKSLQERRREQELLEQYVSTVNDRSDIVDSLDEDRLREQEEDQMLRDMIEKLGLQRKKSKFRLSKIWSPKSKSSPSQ
UniProt Q9NQG6: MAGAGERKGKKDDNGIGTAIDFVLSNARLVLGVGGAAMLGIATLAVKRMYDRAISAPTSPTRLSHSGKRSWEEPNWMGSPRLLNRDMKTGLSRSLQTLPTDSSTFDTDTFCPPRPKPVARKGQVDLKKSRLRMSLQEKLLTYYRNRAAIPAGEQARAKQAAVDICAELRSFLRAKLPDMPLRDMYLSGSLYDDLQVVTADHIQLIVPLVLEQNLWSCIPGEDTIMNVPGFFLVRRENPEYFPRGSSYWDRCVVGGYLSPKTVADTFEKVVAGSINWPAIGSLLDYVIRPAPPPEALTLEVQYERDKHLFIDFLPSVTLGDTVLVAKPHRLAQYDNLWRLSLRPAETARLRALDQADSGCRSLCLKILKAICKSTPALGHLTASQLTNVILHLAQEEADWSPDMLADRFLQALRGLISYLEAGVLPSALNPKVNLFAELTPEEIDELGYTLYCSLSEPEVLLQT
UniProt P51948: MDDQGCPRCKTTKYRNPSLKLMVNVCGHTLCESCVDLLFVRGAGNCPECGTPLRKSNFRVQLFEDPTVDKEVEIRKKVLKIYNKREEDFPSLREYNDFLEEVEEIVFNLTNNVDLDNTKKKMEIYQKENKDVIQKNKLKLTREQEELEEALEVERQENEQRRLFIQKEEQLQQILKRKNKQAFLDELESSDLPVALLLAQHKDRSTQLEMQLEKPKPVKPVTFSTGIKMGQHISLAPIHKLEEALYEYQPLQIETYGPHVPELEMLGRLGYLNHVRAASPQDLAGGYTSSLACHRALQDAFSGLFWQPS
UniProt Q9NZB8: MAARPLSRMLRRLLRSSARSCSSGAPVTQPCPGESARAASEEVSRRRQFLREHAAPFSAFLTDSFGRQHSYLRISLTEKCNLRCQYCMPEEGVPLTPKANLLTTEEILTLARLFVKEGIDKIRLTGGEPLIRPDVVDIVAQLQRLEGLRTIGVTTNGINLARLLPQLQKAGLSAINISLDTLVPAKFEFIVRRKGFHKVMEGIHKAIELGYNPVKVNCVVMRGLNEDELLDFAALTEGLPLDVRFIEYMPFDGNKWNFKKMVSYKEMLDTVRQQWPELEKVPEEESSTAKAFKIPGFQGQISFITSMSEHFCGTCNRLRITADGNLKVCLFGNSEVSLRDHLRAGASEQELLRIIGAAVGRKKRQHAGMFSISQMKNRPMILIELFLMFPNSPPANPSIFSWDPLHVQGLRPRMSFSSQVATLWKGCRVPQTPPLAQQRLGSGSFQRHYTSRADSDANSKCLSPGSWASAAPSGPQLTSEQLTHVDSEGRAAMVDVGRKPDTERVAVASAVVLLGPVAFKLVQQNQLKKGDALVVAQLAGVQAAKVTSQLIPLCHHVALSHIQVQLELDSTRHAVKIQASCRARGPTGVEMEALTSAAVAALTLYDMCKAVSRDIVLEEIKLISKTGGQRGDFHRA
UniProt P55197: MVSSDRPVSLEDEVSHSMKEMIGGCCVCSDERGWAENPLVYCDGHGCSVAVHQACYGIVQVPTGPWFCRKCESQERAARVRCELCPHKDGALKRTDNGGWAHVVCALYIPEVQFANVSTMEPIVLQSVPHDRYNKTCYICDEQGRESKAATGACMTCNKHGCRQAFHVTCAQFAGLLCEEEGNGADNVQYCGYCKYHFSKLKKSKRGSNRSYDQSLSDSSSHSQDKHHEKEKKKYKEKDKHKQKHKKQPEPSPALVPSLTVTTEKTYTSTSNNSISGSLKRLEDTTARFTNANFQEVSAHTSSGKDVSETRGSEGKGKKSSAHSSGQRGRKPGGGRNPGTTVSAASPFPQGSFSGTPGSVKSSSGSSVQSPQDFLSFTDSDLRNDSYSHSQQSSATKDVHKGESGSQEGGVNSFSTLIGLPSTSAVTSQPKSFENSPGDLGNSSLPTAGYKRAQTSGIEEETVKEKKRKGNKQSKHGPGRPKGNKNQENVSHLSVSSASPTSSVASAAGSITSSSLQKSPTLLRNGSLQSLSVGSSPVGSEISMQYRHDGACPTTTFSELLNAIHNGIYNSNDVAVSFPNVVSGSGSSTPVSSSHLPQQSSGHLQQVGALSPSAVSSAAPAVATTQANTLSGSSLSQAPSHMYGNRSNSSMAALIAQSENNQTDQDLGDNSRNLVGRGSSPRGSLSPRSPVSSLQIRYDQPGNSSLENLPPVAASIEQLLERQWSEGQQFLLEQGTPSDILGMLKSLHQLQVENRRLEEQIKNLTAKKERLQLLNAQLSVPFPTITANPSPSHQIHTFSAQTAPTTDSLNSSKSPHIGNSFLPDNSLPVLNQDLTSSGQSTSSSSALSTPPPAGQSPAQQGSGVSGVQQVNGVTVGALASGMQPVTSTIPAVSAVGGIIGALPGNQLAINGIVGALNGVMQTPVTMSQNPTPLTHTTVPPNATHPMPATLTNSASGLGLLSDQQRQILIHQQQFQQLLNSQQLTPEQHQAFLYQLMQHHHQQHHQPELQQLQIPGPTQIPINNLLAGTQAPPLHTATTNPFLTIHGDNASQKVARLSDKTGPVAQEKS
UniProt Q6IN84: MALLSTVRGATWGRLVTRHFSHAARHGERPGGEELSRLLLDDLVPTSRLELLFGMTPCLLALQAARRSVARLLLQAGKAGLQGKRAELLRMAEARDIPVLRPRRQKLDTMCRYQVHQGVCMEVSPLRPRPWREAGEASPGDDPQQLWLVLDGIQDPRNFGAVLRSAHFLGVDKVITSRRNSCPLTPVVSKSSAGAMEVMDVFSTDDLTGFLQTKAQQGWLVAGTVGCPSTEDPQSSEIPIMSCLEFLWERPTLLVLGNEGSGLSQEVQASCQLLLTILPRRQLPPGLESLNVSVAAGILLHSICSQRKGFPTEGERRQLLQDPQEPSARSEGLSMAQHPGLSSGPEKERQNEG
UniProt Q9UHC7: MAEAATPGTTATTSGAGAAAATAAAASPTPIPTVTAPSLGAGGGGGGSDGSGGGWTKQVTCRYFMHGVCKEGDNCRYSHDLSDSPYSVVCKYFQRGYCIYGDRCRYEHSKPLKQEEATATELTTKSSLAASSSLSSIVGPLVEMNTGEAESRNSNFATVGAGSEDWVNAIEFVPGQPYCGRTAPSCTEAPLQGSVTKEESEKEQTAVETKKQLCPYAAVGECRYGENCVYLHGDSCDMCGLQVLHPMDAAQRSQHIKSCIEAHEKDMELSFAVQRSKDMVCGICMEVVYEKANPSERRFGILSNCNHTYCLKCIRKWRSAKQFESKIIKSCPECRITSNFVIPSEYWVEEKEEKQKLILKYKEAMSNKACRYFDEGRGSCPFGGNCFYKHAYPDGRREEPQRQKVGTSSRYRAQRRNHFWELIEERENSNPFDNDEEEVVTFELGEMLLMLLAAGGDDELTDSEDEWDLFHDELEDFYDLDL
UniProt Q8TAP9: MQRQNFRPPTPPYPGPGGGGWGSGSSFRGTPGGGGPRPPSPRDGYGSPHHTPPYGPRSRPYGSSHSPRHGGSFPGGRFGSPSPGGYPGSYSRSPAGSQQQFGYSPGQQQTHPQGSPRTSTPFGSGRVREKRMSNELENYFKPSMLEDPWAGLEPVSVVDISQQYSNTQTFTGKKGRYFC
UniProt Q9NXC5: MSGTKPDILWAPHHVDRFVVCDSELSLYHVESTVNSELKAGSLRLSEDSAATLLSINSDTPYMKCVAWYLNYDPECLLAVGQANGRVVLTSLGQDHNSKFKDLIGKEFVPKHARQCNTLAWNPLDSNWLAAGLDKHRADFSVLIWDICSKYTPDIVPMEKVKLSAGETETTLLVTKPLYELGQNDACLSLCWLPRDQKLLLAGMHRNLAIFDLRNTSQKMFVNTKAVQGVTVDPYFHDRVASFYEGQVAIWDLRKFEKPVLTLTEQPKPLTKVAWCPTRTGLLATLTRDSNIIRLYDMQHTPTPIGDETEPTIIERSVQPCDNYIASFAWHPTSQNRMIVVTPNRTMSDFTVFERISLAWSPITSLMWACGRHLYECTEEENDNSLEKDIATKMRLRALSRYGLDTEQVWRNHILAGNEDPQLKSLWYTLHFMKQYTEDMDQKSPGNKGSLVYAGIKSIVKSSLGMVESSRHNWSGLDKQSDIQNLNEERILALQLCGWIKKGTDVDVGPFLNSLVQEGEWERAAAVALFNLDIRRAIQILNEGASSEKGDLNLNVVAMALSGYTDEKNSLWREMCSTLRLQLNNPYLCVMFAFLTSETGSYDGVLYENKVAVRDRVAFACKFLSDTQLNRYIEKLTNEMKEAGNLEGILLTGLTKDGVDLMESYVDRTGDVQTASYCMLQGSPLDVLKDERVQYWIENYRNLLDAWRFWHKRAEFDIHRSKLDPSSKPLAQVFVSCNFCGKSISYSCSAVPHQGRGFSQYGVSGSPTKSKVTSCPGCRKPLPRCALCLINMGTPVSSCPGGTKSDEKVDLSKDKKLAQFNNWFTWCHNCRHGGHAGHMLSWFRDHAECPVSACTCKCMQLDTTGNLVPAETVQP
UniProt Q9BRT3: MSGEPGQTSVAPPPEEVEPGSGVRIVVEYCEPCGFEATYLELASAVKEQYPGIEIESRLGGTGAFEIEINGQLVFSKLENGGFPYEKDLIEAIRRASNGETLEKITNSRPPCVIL
UniProt O95396: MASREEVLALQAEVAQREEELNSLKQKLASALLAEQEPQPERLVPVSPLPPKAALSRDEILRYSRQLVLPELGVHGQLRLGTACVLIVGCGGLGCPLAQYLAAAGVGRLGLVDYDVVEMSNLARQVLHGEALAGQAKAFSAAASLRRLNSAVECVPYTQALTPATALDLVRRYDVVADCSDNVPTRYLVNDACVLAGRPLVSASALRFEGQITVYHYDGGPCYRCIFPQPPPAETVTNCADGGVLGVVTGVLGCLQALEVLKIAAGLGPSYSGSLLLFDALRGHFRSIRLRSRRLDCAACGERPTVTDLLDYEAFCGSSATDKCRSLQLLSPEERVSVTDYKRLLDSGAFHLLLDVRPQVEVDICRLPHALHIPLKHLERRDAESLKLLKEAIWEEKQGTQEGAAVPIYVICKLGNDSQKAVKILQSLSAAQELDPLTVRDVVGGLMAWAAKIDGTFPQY
UniProt P29372, whole entry, looked up: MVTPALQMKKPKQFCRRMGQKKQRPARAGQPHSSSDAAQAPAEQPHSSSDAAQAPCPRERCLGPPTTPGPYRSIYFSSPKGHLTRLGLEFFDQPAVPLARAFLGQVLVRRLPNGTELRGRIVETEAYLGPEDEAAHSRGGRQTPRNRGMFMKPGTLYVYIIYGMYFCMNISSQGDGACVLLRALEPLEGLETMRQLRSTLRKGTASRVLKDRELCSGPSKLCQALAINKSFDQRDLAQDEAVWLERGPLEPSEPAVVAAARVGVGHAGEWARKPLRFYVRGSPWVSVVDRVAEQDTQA
UniProt O75352: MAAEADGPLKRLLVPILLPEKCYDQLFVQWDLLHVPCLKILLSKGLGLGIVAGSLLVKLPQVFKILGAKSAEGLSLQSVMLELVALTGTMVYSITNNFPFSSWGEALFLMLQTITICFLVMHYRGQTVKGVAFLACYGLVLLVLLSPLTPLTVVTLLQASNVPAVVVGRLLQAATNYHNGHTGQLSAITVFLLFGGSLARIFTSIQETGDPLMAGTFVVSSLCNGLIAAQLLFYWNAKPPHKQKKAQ

What was measured:
Experiment in all cases: log2 fold change, soluble protein after heating vs DMSO (PISA); higher = thermal stabilisation; K562 cells, 10 uM, 30 min; active = over 0.2 and 3.5 SD of the protein, either way, in both replicates (recomputed)
[1] = compound: C1=CC=C(C=C1)[C@H](COC2=CC3=C(C=C2)NC(=O)N3)NC(=O)C4=CC=CN(C4=O)CC5=CC(=C(C=C5)F)F
Method in brief: (§1)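 Quantification of soluble protein used TMTpro 16plex LC-MS/MS, with channel sums equalised. Samples were the supernatant after 21,000xg for 90 min of pooled aliquots from K562 cells (2×10^6 cells/mL) treated with 10 μM compound for 30 min, heated for 3 min over 48°C-58°C, and extracted in PBS with 0.5% NP-40 at 4°C. Values, from duplicates, describe thermal stability against control samples on a log2 fold-change scale.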

[2] = compound: CC1=C(SC2=C1C(=N[C@H](C3=NN=C(N32)C)CC(=O)N)C4=CC=C(C=C4)Cl)C
Method in brief: as §1

[3] = compound: CC1=C2C(=CC=C1)N=C(N(C2=O)C3=CC=CC=C3C)CN4C=NC5=C(N=CN=C54)N
Method in brief: as §1

[4] = compound: Cc1sc2c(c1C)C(c1ccc(Cl)cc1)=N[C@@H](CC(=O)OC(C)(C)C)c1nnc(C)n1-2
Method in brief: as §1

[5] = compound: c1ccc([C@@H]2C[C@H]2NC2CCNCC2)cc1
Method in brief: as §1

Measured: log2 fold change

MRGBP (UniProt Q9NV56)
inactive: [1] -0.028 | [2] -0.015 | [3] 0.037 | [4] -0.049 | [5] 0.011

MRPL44 (UniProt Q9H9J2)
inactive: [1] 0.052 | [2] -0.122 | [3] -0.175 | [4] 0.051 | [5] -0.036

MRPL50 (UniProt Q8N5N7)
inactive: [1] 0.11 | [2] 0.01 | [3] -0.079 | [4] -0.022 | [5] -0.05

MRPL28 (UniProt Q13084)
inactive: [1] 0.015 | [2] -0.192 | [3] -0.084 | [4] 0.004 | [5] -0.078

Pulled one by one from the entries so far, 3 records:
MRPL28 (UniProt Q13084)
inactive: [1] 0.015 | [2] -0.192 | [3] -0.084 | [4] 0.004 | [5] -0.078

MRPL44 (UniProt Q9H9J2)
inactive: [1] 0.052 | [2] -0.122 | [3] -0.175 | [4] 0.051 | [5] -0.036

MRGBP (UniProt Q9NV56)
inactive: [1] -0.028 | [2] -0.015 | [3] 0.037 | [4] -0.049 | [5] 0.011

(listing goes on)

MIER1 isoform 12 (UniProt Q8N108)
inactive: [1] -0.012 | [2] 0.073 | [3] 0.059 | [4] 0.016 | [5] 0.02

MLYCD (UniProt O95822)
inactive: [1] -0.165 | [2] 0.072 | [3] 0.065 | [4] -0.05 | [5] 0.01

MMADHC (UniProt Q9H3L0)
inactive: [1] 0.056 | [2] -0.155 | [3] 0.057 | [4] 0.088 | [5] 0.077

MRAS (UniProt O14807)
inactive: [1] 0.013

MKKS (UniProt Q9HB66)
inactive: [1] 0.061 | [2] 0.006 | [3] -0.114 | [4] -0.059 | [5] 0.014

MRPL27 (UniProt Q9P0M9)
inactive: [1] 0.06 | [2] -0.264 | [3] -0.064 | [4] 0.115 | [5] 0.021

MICALL2 (UniProt Q8IY33)
inactive: [1] -0.083 | [2] 0.092 | [3] 0.053 | [4] -0.007 | [5] -0.09

MOB3A (UniProt Q96BX8)
inactive: [1] -0.027 | [2] 0.056 | [3] 0.157 | [4] -0.044 | [5] 0.017

MPHOSPH10 (UniProt O00566)
inactive: [1] 0.023 | [2] -0.279 | [3] -0.206 | [4] 0.094 | [5] -0.024

MPI (UniProt P34949)
inactive: [1] -0.005 | [2] 0.04 | [3] 0.017 | [4] 0.015 | [5] 0.062

MKNK1 (UniProt Q9BUB5)
inactive: [1] -0.056 | [2] 0.039 | [3] 0.065 | [4] 0.03 | [5] -0.009

MRPL32 (UniProt Q9BYC8)
inactive: [1] 0.034 | [2] -0.157 | [3] -0.098 | [4] 0.017 | [5] 0.025

MRPL13 (UniProt Q9BYD1)
inactive: [1] 0.009 | [2] -0.149 | [3] -0.104 | [4] 0.013 | [5] 0

MORC3 (UniProt Q14149)
inactive: [1] -0.043 | [2] 0.014 | [3] 0.132 | [4] 0.017 | [5] 0.062

MIEF1 (UniProt Q9NQG6)
inactive: [1] -0.043 | [2] 0.053 | [3] 0.047 | [4] -0.024 | [5] -0.054

MRPL1 (UniProt Q9BYD6)
inactive: [1] 0.042 | [2] -0.063 | [3] -0.116 | [4] 0.154 | [5] 0.015

MNAT1 (UniProt P51948)
inactive: [1] 0.011 | [2] 0.088 | [3] 0.005 | [4] 0.033 | [5] 0.068

MOCS1 isoform 8 (UniProt Q9NZB8)
inactive: [1] -0.104 | [2] 0.004 | [3] 0.057 | [4] 0.047 | [5] 0.081

MRPL15 (UniProt Q9P015)
inactive: [1] 0.06 | [2] -0.142 | [3] -0.024 | [4] 0.157 | [5] 0.01

MLST8 (UniProt Q9BVC4)
inactive: [1] -0.038 | [2] 0.062 | [3] 0.082 | [4] -0.05 | [5] -0.071

MLLT10 (UniProt P55197)
inactive: [1] 0.058

MRPL39 (UniProt Q9NYK5)
inactive: [1] 0.045 | [2] -0.043 | [3] -0.117 | [4] 0.03 | [5] -0.053

MRM1 (UniProt Q6IN84)
inactive: [1] 0.048 | [2] -0.303 | [3] -0.084 | [4] 0.165 | [5] 0.009

MLLT1 (UniProt Q03111)
inactive: [1] 0.034 | [2] -0.136 | [3] -0.217 | [4] 0.07 | [5] 0.037

MKRN1 (UniProt Q9UHC7)
inactive: [1] 0.131 | [2] -0.045 | [3] -0.138 | [4] 0.046 | [5] 0.066

MLXIP (UniProt Q9HAP2)
inactive: [1] -0.202 | [2] 0.033 | [3] 0.282 | [4] -0.044 | [5] -0.392

MIF4GD isoform 3 (UniProt A9UHW6)
inactive: [1] 0.01 | [2] 0.106 | [3] 0.11 | [4] -0.059 | [5] 0.04

MMS19 isoform 8 (UniProt Q96T76)
inactive: [1] -0.034 | [2] -0.001 | [3] 0.133 | [4] 0.002 | [5] -0.003

MPLKIP (UniProt Q8TAP9)
inactive: [1] 0.001 | [2] -0.056 | [3] 0.03 | [4] -0.031 | [5] 0.027

MORC2 (UniProt Q9Y6X9)
inactive: [1] -0.293

MRPL37 (UniProt Q9BZE1)
inactive: [1] -0.013 | [2] -0.048 | [3] -0.019 | [4] 0.012 | [5] -0.042

MRPL38 (UniProt Q96DV4)
inactive: [1] 0.075 | [2] -0.181 | [3] -0.138 | [4] 0.17 | [5] -0.056

MRPL48 (UniProt Q96GC5)
inactive: [1] -0.023 | [2] -0.094 | [3] -0.134 | [4] 0.08 | [5] 0.026

MRPL14 (UniProt Q6P1L8)
inactive: [1] -0.02 | [2] 0.015 | [3] -0.059 | [4] 0.033 | [5] -0.094

MMGT1 (UniProt Q8N4V1)
inactive: [1] 0.018 | [2] 0.085 | [3] 0.131 | [4] -0.092 | [5] -0.016

MRPL19 (UniProt P49406)
inactive: [1] 0.003 | [2] -0.125 | [3] -0.082 | [4] 0.047 | [5] -0.022

MRPL23 (UniProt Q16540)
inactive: [1] 0.076 | [2] -0.068 | [3] 0.001 | [4] 0.11 | [5] -0.031

MIOS (UniProt Q9NXC5)
inactive: [1] 0.022 | [2] -0.043 | [3] -0.027 | [4] 0.102 | [5] -0.011

MIEN1 (UniProt Q9BRT3)
inactive: [1] 0.035 | [2] 0.101 | [3] 0.014 | [4] -0.097 | [5] 0.019

MRFAP1 (UniProt Q9Y605)
inactive: [1] 0.009 | [2] 0.109 | [3] -0.043 | [4] 0.031 | [5] -0.017

MRPL35 (UniProt Q9NZE8)
inactive: [1] 0.061 | [2] -0.163 | [3] -0.163 | [4] 0.15 | [5] 0

MON1B (UniProt Q7L1V2)
inactive: [1] -0.032 | [2] 0.044 | [3] 0.056 | [4] -0.008 | [5] -0.064

MRPL11 (UniProt Q9Y3B7)
inactive: [1] 0.033 | [2] -0.105 | [3] -0.069 | [4] 0.11 | [5] -0.042

MRPL49 (UniProt Q13405)
inactive: [1] 0.052 | [2] -0.041 | [3] 0.055 | [4] -0.058 | [5] -0.01

MRPL10 isoform 2 (UniProt Q7Z7H8)
inactive: [1] 0.03 | [2] -0.107 | [3] -0.023 | [4] 0.076 | [5] -0.03

MOCS3 (UniProt O95396)
inactive: [1] 0.057 | [2] 0.056 | [3] 0.04 | [4] -0.018 | [5] 0.146

MIEF1 (UniProt L0R8F8)
inactive: [1] 0.072 | [2] 0.026 | [3] 0.039 | [4] -0.092 | [5] 0.007

2 consecutive entries already listed, for reference:
MRPL49 (UniProt Q13405)
inactive: [1] 0.052 | [2] -0.041 | [3] 0.055 | [4] -0.058 | [5] -0.01

MRPL10 isoform 2 (UniProt Q7Z7H8)
inactive: [1] 0.03 | [2] -0.107 | [3] -0.023 | [4] 0.076 | [5] -0.03

Later entries

MOB4 (UniProt Q9Y3A3)
inactive: [1] -0.025 | [2] -0.014 | [3] 0.089 | [4] -0.002 | [5] 0.058

MPG (UniProt P29372)
inactive: [1] -0.034 | [2] -0.003 | [3] 0.008 | [4] 0.06 | [5] 0.007

MMUT (UniProt P22033)
inactive: [1] -0.012 | [2] 0.054 | [3] 0.074 | [4] -0.008 | [5] 0

MPDU1 (UniProt O75352)
inactive: [1] -0.041 | [2] 0.019 | [3] -0.045 | [4] -0.1 | [5] 0.147
